Results reported in patent US20220064329A1.
These are yes or no findings as the source states them, for the method shown. Some entries that bind do so weakly or less than the wild type.

Target: T1, TLT-1 37-mer stalk peptide (human)
T1 sequence (peptide): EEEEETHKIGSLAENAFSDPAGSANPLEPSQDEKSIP
Experiment: gel filtration of Fab and stalk peptide mixed at 1:2 molar ratio

binding: binds
B1: Fab fragment with the VL and VH domains of mAb1076 (anti-TLT-1 Fab) (Fab, V domains shown)
VH: EVQLVESGGGLVQPGGSLRLSCAASGFTFSRYWMTWVRQAPGKGLVWVGEINPDSSTINYAPSVKGRFTISRDNAKNTLYLQMNSLRAEDTAVYYCASGVFTSWGQGTLVTVSS
VL: DIVMTQTPLSSPVTLGQPASISCRSSQSLVHRQGNTYFHWLQQRPGQPPRLLIYKVSNRFSGVPDRFSGSGAGTDFTLKISRVEAEDVGVYYCSQSTHVPYTFGQGTKLEIK
